Results published in EP4834881A1, “QUINOLONE COMPOUNDS AND USE THEREOF” (dated 2026).

The chains behind the UniProt entries cited, without tags or fusion partners.
UniProt Q96LB1, whole entry: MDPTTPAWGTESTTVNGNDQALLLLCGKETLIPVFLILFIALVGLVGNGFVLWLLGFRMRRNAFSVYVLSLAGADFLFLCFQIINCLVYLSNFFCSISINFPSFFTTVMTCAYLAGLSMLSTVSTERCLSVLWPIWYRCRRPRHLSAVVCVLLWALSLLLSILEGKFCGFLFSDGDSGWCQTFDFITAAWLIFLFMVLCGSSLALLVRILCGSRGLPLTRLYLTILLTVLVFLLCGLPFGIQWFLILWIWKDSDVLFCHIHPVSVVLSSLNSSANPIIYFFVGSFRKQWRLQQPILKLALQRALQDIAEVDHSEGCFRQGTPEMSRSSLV

Target: human MRGPRX2 (Homo sapiens, UniProt Q96LB1)
Assay: In vitro target binding assay: BRET between MRGPRX2-Nluc and Venus-β-arrestin1 in transfected HEK-293T cells, antagonist mode against agonist R-ZINC-3573 (EC80)
Conditions: antagonism of agonist R-ZINC-3573 at EC80, net BRET
Source text: Bioluminescence Resonance Energy Transfer (BRET) is an important biophysical technique for monitoring molecular interactions, and has been widely used to study protein-protein interactions in living cells. This technique requires the relevant proteins to be linked to an energy donor (such as luciferase) and an acceptor (such as a fluorescent protein). When a relevant drug molecule interacts with the protein, the protein structure alters, causing a change in the distance between the energy donor and the energy acceptor. The luminescence energy induced by the chemical reaction is transferred to the corresponding acceptor, resulting in increased acceptor emission, and generating a BRET signal. In this work, a DNA-synthesized target human MRGPRX2 and a donor luciferase Nluc (NanoLuc®Promega) (Supplier: Beijing Tsingke, Lot No.: SZ0171228-1), as well as an acceptor fluorescent protein Venus and the relevant test protein, namely human β-arrestin1 (ARRB1) (Supplier: Guangzhou Dahong Biotechnology, Lot No. HY22694-4396), were utilized, and were inserted into the eukaryotic expression vector plasmid pcDNA3.1(+) (Supplier: Qiyun Bio, Lot No.: QY2310) as fusion genes via a Linker sequence (GGSG). The cell line selected for the experiment was human embryonic kidney cells HEK-293T. The human embryonic kidney cell line HEK-293T was routinely cultured in 10 cm cell culture dishes using complete culture medium consisting of high-glucose DMEM medium supplemented with 10% (V/V) fetal bovine serum. Cells were seeded at 2×10^6 cells/10 cm dish on the first day of culture, and passaged every 72 h with the same number of cells. One day prior to transfection, cells were resuspended, counted, and seeded at a density of 2×10^6 cells/6 cm dish or 4×10^6 cells/10 cm dish. Transfection was carried out 16-24 h after seeding. Plasmids constructed with the fusion protein gene were transfected into the expression cell line, and the transfected cells were cultured under appropriate conditions for a period of time to allow sufficient expression of the fusion proteins. Transfection was performed by encapsulating plasmid DNA with PEI reagent, and the encapsulation process should to be carried out in Opti-MEM medium. The ratio of plasmid, PEI (Supplier: Yeasen Biotechnology, Lot No.: WP5430010), and Opti-MEM (Supplier: Gibco, Lot No.: 2883564) was 1:4:14 (W: W: V). The encapsulated plasmid was added to an appropriate amount of complete culture medium, amd gently mixed, which was then used to replace the existing culture medium of the previously plated cells. Cells were harvested 24 h after transfection. Subsequently, cells were resuspended using HBSS (Source: Biosharp, Lot No.: 24179687) and counted with a cell counter. The cells were diluted to a density of (3~5) ×10^5 cells/mL, and then seeded into a flat-bottom white 96-well microplate at 100 µ L/well, resulting in (3~5) ×10^4 cells per well. In each well, 10 µ L of antagonist compounds diluted with HBSS a different concentrations were added firstly, then the agonist compound at a specific concentration (EC80) was added. After reacting for 2 min, the substrate Furimazine (Supplier: TargetMol, Lot No.: 362434) at a final concentration of 10 µM was added. After reacting for another 2 min, the 96-well plate was placed in a PHERAstar FSX microplate reader (Supplier: BMG Labtech) to simultaneously measure the readings at wavelengths of 440 nm and 530 nm. Based on the fluorescence readings at 440 nm and 530 nm, the Ratio and net BRET were calculated. Ratio = Em530 nm / Em440 nm, and net BRET = Ratio co-transfection - Ratio single-transfection. The calculated net BRET values were inputted into GraphPad Prism 9, and curve fitting via nonlinear regression (four-parameter equation) and IC50 calculation were performed.

Row | SMILES | IC50
1 | CCCCCNS(=O)(=O)c1ccc(-c2c(F)cc3c(=O)c(C(=O)O)cn(CC)c3c2F)cn1 | 1 to 10 µM
2 | CCCCCNS(=O)(=O)c1ccc(-c2cc3c(cc2F)c(=O)c(C(=O)O)cn3CC)cc1 | 1 to 10 µM
3 | NS(=O)(=O)c1ccc(-c2cc3c(cc2F)c(=O)c(C(=O)O)cn3C2CC2)cn1 | 1 to 10 µM
4 | NS(=O)(=O)c1ccc(-c2cc3c(cc2F)c(=O)c(C(=O)O)cn3C2CC2)cc1F | 10 to 80 µM
5 | O=C(O)c1cn(C2CC2)c2c(Cl)c(-c3ccc(S(=O)(=O)N4CCCC4)cc3)c(F)cc2c1=O | 1 to 10 µM
6 | O=C(O)c1cn(C2CC2)c2c(Cl)c(-c3ccc(S(=O)(=O)NC4CCCCC4)nc3)c(F)cc2c1=O | 1 to 10 µM
7 | O=C(O)c1cn(C2CC2)c2cc(-c3ccc(S(=O)(=O)NC4CCOCC4)nc3)c(F)cc2c1=O | 10 to 80 µM
8 | CCCCCCCNS(=O)(=O)c1ccc(-c2cc3c(cc2F)c(=O)c(C(=O)OC)cn3C2CC2)cc1 | 0.1 to 1 µM
9 | CCCCCNS(=O)(=O)c1ccc(-c2cc3c(cc2F)c(=O)c(C(=O)O)cn3C2CC2)cn1 | 1 to 10 µM
10 | CCCCCCCCCNS(=O)(=O)c1ccc(-c2c(F)cc3c(=O)c(C(=O)O)cn(C4CC4)c3c2OC)cc1 | 0.1 to 1 µM
11 | O=C(O)c1cn(C2CC2)c2nc(-c3ccc(S(=O)(=O)NCCCC(F)(F)F)cc3)c(F)cc2c1=O | 1 to 10 µM
12 | O=C(O)c1cn(C2CC2)c2cc(-c3ccc(NC(=O)C(F)F)nc3)c(F)cc2c1=O | 10 to 80 µM
13 | CC(C)(C)CNC(=O)c1ccc(-c2cc3c(cc2F)c(=O)c(C(=O)O)cn3C2CC2)cc1 | 10 to 80 µM
14 | CCCNS(=O)(=O)c1ccc(-c2cc3c(cc2F)c(=O)c(C(=O)OC)cn3C2CC2)cc1 | 10 to 80 µM

Now from value to compound:

Row | IC50 | SMILES
15 | 1 to 10 µM | O=C(O)c1cn(C2CC2)c2cc(-c3ccc(S(=O)(=O)N4CCCC4)cc3)c(F)cc2c1=O
16 | 1 to 10 µM | C=CCNc1ccc(-c2c(F)cc3c(=O)c(C(=O)O)cn(C4CC4)c3c2Cl)cn1
17 | 10 to 80 µM | CCCNS(=O)(=O)c1ccc(-c2cc3c(cc2F)c(=O)c(C(=O)O)cn3C2CC2)cn1
18 | 1 to 10 µM | O=C(O)c1cn(C2CC2)c2cc(-c3ccc(S(=O)(=O)N4CCCCC4)nc3)c(F)cc2c1=O
19 | 1 to 10 µM | CCCCCCCNS(=O)(=O)c1ccc(-c2cc3c(cc2F)c(=O)c(C(=O)O)cn3C2CC2)nc1
20 | 1 to 10 µM | O=C(O)c1cn(C2CC2)c2cc(-c3ccc(S(=O)(=O)N4CCCC4)nc3)c(F)cc2c1=O
21 | 10 to 80 µM | CCCS(=O)(=O)Nc1ccc(-c2c(F)cc3c(=O)c(C(=O)O)cn(C4CC4)c3c2Cl)nc1
22 | 10 to 80 µM | NC(=O)c1cc(-c2c(F)cc3c(=O)c(C(=O)O)cn(C4CC4)c3c2Cl)ccn1
23 | 1 to 10 µM | CCn1cc(C(=O)O)c(=O)c2cc(F)c(-c3ccc(S(=O)(=O)N4CCCC4)cc3)cc21
24 | 10 to 80 µM | C=CCNc1ccc(-c2nc3c(cc2F)c(=O)c(C(=O)O)cn3C2CC2)cc1

Structures were worked out from names or drawings and are uncertain.
